The values that follow come from publication PMC4783080.

Protein sequences, listed by entry. Tags and fused reporters are not part of them. Lines headed by an entry give the natural chain unless they say otherwise; changes in a name come on top.
UniProt A5KCP8: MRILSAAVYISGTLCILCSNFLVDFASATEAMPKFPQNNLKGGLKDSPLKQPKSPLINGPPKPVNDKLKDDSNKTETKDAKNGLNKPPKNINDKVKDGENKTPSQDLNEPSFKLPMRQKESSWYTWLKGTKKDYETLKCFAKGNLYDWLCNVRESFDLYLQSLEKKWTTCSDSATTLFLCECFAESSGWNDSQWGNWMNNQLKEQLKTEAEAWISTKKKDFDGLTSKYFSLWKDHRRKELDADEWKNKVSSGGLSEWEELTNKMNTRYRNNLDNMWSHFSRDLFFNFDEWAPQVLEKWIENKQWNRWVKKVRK
UniProt Q8IFM9: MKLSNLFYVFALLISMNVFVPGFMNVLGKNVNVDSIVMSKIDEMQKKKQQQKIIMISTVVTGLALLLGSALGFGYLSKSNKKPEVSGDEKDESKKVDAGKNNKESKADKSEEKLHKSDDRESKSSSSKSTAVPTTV
UniProt Q8IIK5: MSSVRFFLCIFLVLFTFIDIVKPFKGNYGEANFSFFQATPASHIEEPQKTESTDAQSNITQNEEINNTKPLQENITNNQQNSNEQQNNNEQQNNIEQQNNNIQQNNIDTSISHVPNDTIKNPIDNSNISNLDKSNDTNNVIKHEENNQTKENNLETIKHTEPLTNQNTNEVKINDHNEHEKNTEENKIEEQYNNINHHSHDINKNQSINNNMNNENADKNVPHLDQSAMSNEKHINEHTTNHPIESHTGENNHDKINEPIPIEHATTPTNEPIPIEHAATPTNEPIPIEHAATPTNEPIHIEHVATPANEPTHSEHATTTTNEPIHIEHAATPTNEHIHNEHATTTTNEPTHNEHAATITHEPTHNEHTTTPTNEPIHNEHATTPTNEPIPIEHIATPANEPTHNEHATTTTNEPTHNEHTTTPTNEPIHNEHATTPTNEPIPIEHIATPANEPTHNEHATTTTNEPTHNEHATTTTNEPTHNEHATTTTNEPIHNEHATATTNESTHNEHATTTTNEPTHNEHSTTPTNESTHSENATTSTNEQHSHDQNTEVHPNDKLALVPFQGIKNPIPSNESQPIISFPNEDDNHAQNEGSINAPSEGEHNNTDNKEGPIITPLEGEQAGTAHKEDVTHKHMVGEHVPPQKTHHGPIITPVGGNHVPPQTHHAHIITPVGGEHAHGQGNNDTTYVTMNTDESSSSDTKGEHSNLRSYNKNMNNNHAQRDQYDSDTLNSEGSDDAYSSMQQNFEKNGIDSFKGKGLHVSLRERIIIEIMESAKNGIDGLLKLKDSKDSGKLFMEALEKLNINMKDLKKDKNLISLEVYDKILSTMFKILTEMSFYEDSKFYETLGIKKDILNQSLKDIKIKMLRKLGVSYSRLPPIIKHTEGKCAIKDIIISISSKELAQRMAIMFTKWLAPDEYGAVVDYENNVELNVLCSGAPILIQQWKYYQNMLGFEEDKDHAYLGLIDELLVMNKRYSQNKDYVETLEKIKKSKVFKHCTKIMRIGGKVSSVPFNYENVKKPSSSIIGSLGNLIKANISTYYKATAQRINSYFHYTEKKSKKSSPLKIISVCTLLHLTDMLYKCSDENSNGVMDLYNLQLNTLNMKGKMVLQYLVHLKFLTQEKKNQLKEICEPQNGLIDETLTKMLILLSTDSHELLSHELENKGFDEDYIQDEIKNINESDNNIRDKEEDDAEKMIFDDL
UniProt Q8I6U8: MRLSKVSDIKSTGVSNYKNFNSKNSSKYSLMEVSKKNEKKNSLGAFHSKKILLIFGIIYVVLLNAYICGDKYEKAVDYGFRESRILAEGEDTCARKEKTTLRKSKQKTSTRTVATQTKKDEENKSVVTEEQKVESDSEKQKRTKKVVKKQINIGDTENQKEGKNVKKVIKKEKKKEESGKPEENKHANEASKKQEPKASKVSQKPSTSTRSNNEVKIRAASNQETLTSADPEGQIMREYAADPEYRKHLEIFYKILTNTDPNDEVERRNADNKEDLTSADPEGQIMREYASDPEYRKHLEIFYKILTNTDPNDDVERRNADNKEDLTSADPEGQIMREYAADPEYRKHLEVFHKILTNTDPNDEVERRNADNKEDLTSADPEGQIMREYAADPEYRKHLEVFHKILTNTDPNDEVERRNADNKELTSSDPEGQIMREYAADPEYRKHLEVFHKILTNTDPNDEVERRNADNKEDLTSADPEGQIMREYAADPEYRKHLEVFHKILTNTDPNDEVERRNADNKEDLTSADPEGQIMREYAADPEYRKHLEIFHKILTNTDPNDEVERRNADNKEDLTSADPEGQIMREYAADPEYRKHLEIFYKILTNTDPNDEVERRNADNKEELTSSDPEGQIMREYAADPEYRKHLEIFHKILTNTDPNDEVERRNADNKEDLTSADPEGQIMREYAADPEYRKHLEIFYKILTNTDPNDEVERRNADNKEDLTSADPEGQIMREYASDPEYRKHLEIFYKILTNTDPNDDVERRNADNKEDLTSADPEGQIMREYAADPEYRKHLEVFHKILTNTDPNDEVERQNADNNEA
UniProt Q8I5D2: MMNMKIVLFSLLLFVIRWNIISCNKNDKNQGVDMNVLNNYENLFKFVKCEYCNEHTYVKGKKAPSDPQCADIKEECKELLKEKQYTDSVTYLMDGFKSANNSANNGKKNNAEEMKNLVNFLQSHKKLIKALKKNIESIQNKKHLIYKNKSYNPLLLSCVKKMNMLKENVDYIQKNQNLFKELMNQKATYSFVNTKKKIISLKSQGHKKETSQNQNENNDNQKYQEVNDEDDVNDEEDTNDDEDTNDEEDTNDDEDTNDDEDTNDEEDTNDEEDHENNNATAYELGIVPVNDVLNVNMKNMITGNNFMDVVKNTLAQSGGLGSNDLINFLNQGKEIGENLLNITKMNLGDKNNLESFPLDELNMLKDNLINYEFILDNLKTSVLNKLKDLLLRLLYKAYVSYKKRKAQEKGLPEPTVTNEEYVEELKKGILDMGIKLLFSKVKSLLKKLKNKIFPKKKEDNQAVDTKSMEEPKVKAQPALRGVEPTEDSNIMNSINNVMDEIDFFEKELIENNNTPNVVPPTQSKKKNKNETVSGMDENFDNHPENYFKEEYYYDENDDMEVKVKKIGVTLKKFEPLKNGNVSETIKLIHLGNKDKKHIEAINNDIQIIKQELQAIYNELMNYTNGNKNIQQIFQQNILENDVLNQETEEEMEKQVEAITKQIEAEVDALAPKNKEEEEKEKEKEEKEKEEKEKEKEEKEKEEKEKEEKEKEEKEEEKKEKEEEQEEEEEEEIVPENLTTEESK

The chains are these.
B1: CLAG9 (protein, UniProt Q8I2G2 1-1340)
chain: MIIWFIQPTIFYIIFILARNIQCTYKGDNINEIKSILDNDELYNSLSNLENLLLQTLEQDELKIPIMKGDLDKYLNMSNFKILNELNADGAEKPYIIPTSNCSANDIVKYEHTLKTQITLEYKPEISDMLKRKNIVVRTLKIIKFMQTPMSAYKNTNNIKQSLLEMNKLFTNKEKKLNEHTINALRLRDRIFNTNNLTHRSIKKGISTYMPIDTKSDIIDYDDLLFTNHPSIELMENLDKLANYYHIGIFNMIGSHYIAVGHFITLKLALKNYKKYFEIGSLKYLNWQSILKFNQSDRFKVLDLICDESSWYEGQMKRREQYLKNNIFSTSEECSVLEFLIHHMNKYQMELYSKMHKLSLNVQIYLENKHLKEKFLQFMCRSRKECNIYESDRFKQEQEKGIEFHDNNNYKFSQENDPVSKVVDPFNLFTNYFYFIKYYSVFNSDHIIYMHLLNFVGVLNGNNNAYVSSLYLPGYYNAIQLSYKDQVGLKELYQNLVKCVEKCYIRNRKNRSFSHRIASIFRHKKFDSSKCSICEGTLLYINDQSQDKMSMAQKFYIFVTKILKVNNISSFITNMNIYEDYSNYLMHDLNWYTFLFLFRMTTYKDIPNYSISNAMYLNIKDEDDTKRTMVTFQWMPSTIKRMHNYRIRKYVSIYLLEELEKLIDNKLIEKLKKCITFLIHLNAFLQLDFFSYLNETPANLQHPFPISMMIEARFKDWFIQYLTGFFFINYDDANTRYNMPENMKRGTFIPPKYSKWNIHLKRFIDEAFLMYFNQKHALTLFKYHNPYNISNKIMLMRDTFELYTKNYDQLIFGADIMLLRKTFSCTPMSTKVWDRVKYYLHNIIGNPINFYKHGLIYAYTLNKAMLKEVVNDFFVIYKMNKDLFSETSFLQTVYLLFKKIQGTYFSHRRNDDVSMNNIFMFNVEKNYSKMSQADREKEIHESMASRFFAKNLFTVFQMMFVIQISNDVDKLDRIYGKADMLRLSVHDEPFLRFAYAYYGSMYDKLTNVFFPMNIKKPTIQLKYGKTFIMANLYYLCSVLFSMYNLNNLGLLCEYQAIGSANFHSYKKMSQFIDKKFIPLVFYTLKARTEGIIGKEWYKMVFNDFDGKSMANTWPYFGYYMGGNMLYRNILYFPNHLPEELRKQTKGVELQQPEYEPSVHSIDWQVGYAISHGLSLSFFTFGMMKAYAYFENVIFFLRNSIRIFDRFYSILENYVCMYIKRLFNKLTVDKLLKAMSRAYTSTKKEGAYEEAMVSRVRNKENVVQEVQEDKGTDITPLPTFDIMDSKQNTNYMYNDNEDYFDDLDDNEQFLNSKDLLYYDDGIDRTKRYELIPLQRYRYDPF

Results are given in words; binding and its absence hold for the method and conditions named. Binding seen in cells or lysates may run through a third protein. Here binding means that the protein was enriched with, or labelled near, the bait; the list need not be complete. For some of these results: Where a sequence is shown, tags or fusion partners need not be part of it.

The target of one experiment is PvTRAg36.6-GFP fusion protein (P. vivax) (UniProt A5KCP8). Kind of experiment: affinity purification with mass spectrometry; co-immunoprecipitation with anti-GFP antibody (Crosslink-IP kit) from trophozoite and schizont stage transgenic P. falciparum 3D7 after streptolysin O treatment; eluates digested in solution and analysed by mass spectrometry.
For “ETRAMP4 (P. falciparum) (from UniProt Q8IFM9)”, the binding entry is given as “binds”. On to RON4 (from UniProt Q8IIK5), for which the binding entry is recorded as “binds”. The same measure, in the same setting: the entry for Pf332 (from UniProt Q8IHN4 1-6093) is “binds”; for B1 it is “binds”.

The next experiment concerns the target T1, PvTRAg56.2-GFP fusion protein (P. vivax) (UniProt A5K5F1).
T1 sequence: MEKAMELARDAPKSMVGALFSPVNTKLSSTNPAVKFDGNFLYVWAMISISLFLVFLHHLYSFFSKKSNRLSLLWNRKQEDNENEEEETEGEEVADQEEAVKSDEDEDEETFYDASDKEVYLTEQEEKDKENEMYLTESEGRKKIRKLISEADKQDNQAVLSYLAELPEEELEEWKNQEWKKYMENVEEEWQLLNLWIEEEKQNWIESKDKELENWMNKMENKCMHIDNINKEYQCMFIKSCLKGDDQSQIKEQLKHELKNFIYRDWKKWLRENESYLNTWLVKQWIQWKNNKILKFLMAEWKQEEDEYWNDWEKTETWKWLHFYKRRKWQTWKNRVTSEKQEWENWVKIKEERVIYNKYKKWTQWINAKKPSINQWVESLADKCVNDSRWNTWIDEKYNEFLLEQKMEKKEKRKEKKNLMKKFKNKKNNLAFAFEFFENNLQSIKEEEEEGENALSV
Described as above.
Regarding “Glycophorin binding protein (GBP) (from UniProt Q8I6U8)”, the binding result is “binds”. The same measure, in the same setting: the entry for “Merozoite surface protein 9 (MSP9) (from UniProt Q8I5D2)” is “binds”; for “Merozoite surface protein 7 (MSP7) of P. falciparum (from UniProt Q8IDX8)” it is “binds”.
